# Reference: PubChem BioAssay AID651640 (Broad Institute, 2012)
# Out of some 350,000 compounds screened, about 6,000 (1.7%) were called active. This list was built around the results that the source calls inconclusive (neither active nor inactive); the mix of calls is not that of the screen. Rule as the data show it: active = CPE inhibition above about 20% (passing the limit was not always enough); inconclusive = no clear call, values can overlap the other calls; tested in BHK-21 cells.
# Assay: protection of cells from dengue 2 killing – plate reader, single concentration, primary screen (AID 651640);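 also: 0% = median of neutral control wells and 100% = median of positive control wells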
# Conditions: DENV2-infected cells, cytopathic effect rescue, at 9.99 µM, active compounds read high
row,SMILES,CPE inhibition
1,C[C@H](CO)N1C[C@H](C)[C@H](CN(C)C(=O)NC2CCCC2)Oc2ncc(-c3cc4ccccc4o3)cc2C1=O,inconclusive: 21.1%
2,CCOC(=O)C1=CCN(S(=O)(=O)c2ccccc2F)C1c1cccc(Br)c1 (stereo not drawn),inactive: 14.1%
3,O=S(=O)(NN=Cc1cccc(Cl)c1)c1ccccc1,active: 27.7%
4,COc1cccc(C(=O)Nc2ccc3c(c2)C(=O)N(C)[C@@H]2CC[C@@H](CC(=O)N[C@H](C)c4ccccc4)O[C@@H]2CO3)c1,inconclusive: 66.1%
5,CCCCCCN(C(=O)CCCCCN1C(=O)NC(c2ccc(-c3ccccc3)cc2)C(C(=O)OCc2ccccc2)=C1C)C(C(=O)NCCCC)C1CCCCC1 (stereo not drawn),inactive: 0.136%
6,Cc1cc(S(=O)(=O)N2CCOCC2)ccc1OCC(=O)N1CCOCC1,inconclusive: 47.1%
7,CC(=O)CC1c2cc(F)ccc2C=C(c2ccsc2)N1c1ccc(-c2cccnc2)cc1 (stereo not drawn),inconclusive: 39%
8,C/C=C/c1ccc2c(c1)O[C@@H](CN(C)C(=O)c1cnccn1)[C@H](C)CN([C@@H](C)CO)S2(=O)=O,inactive: 3.84%
9,C[C@@H]1CN([C@H](C)CO)C(=O)Cc2cc(NC(=O)CCCCCC(=O)Nc3ccccc3N)ccc2O[C@@H]1CN(C)S(C)(=O)=O,active: 90.7%
10,O=C(CCNC(=O)c1ccc(Br)cc1)Nc1ccc(S(=O)(=O)N2CCCCC2)cc1,inconclusive: 56.2%
11,O=C(C[C@H]1CC[C@H]2[C@@H](COC[C@@H](O)CN2S(=O)(=O)c2ccc(Cl)cc2)O1)NCCN1CCCC1,inactive: -4.54%
12,O=C(Nc1ccc(Cl)cc1)N[C@@H]1CC[C@@H](CCn2cc(-c3ccccc3F)nn2)O[C@H]1CO,inconclusive: 21%
13,COc1ccc(Cl)cc1NC(=O)CN(C)CC(=O)Nc1cccc(S(=O)(=O)N2CCCC2)c1,inactive: -5.55%
14,CNC[C@H]1Oc2ncc(-c3cncnc3)cc2C(=O)N([C@@H](C)CO)C[C@H]1C,inactive: -13.7%
15,N#C[C@H]1[C@H](c2ccc(C#Cc3ccccc3F)cc2)[C@@H](CO)N1C(=O)C1CCOCC1,inactive: 4.6%
16,O=c1c2c3c(sc2nc(NCCOCCO)n1Cc1ccco1)CCCCC3,inactive: -1.11%
17,O=C(C[C@@H]1C=C[C@H](NC(=O)Nc2cccc(F)c2)[C@@H](CO)O1)NCC1CCCCC1,inconclusive: 27.5%
18,COc1ccc(/C=C/C(=O)c2ccc(OC)cc2O)cc1,active: 64.1%
19,C/C(=N\NC(N)=S)c1cc(-c2ccccc2)c(-c2ccccc2)s1,inconclusive: 37.2%
20,O=C(Nc1ccc2oc(=O)ccc2c1)c1ccc(-c2cccc([N+](=O)[O-])c2)o1,active: 27.1%
21,O=C(/C=C/c1ccccn1)c1cc(Br)ccc1O,inactive: -3.42%
22,Cc1ccc(C(C)NC(=O)c2cccnc2)cc1 (stereo not drawn),inconclusive: 22.9%
23,COc1ccc(S(=O)(=O)N(C)C[C@@H]2Oc3ccc(NC(=O)Nc4ccccc4)cc3CC(=O)N([C@H](C)CO)C[C@H]2C)cc1,inactive: 5.85%
24,Cc1ccc(S(=O)(=O)N(C)C[C@H]2Oc3ccc(NC(=O)Nc4ccc(F)cc4)cc3CC(=O)N([C@H](C)CO)C[C@@H]2C)cc1,active: 80.3%
25,COCC(=O)N1CC[C@@H]2[C@H](CO)Nc3ccc(-c4cccc(C(=O)N(C)C)c4)cc3[C@@H]21,inconclusive: 31.8%

row,SMILES,CPE inhibition
1,O=c1sc(N2CCN(c3ccccc3F)CC2)nc2ccsc12,inconclusive: 28.2%
2,Cc1ccccc1Cn1c(=O)[nH]c2ccccc21,inconclusive: 28.1%
3,CC(=O)Nc1ccc(S(=O)(=O)N2CCC(C(N)=O)(N3CCCCC3)CC2)cc1,inconclusive: 27.7%
4,CC1CCN(c2ccc3nnc(CCC(=O)N4CCN(c5ccccc5F)CC4)n3n2)CC1,inconclusive: 24.4%
5,Cc1noc(C)c1NC(=O)Nc1ccc2c(c1)C(=O)N([C@@H](C)CO)C[C@@H](C)[C@@H](CN(C)C)OCCCC[C@@H](C)O2,active: 84.2%
6,COc1ccc(C2NC(c3ccc(OC)cc3OC)C(C)C(=O)C2C)c(OC)c1 (stereo not drawn),inactive: 2.02%
7,CCCCOC(=O)c1ccccc1N1C(=O)C2C3CCC(C3)C2C1=O (stereo not drawn),inconclusive: 25.8%
8,O=C(CSc1nc2[nH]ncc2c(=O)[nH]1)NCc1ccc(F)cc1,inconclusive: 44.3%
9,Cc1ccc(NC(=O)COC(=O)c2cccc(N3C(=O)c4ccccc4C3=O)c2)cc1,inactive: -0.494%
10,CCN(CC(=O)Nc1cc(Cl)ccc1-n1cncn1)Cc1nc2ccccc2c(=O)[nH]1,active: 30.8%
11,COc1cccc(CNC(=O)C[C@@H]2CC[C@@H](NC(C)=O)[C@H](CO)O2)c1,inconclusive: 43.4%
12,C[C@H](O)C#Cc1cnc2c(c1)C(=O)N([C@@H](C)CO)C[C@@H](C)[C@H](CN(C)Cc1ccccn1)O2,inactive: 4.37%
13,COc1ccc(S(=O)(=O)Nc2ccc3c(c2)C(=O)N([C@@H](C)CO)C[C@@H](C)[C@H](CN(C)Cc2ccc4c(c2)OCO4)OCCCC[C@@H](C)O3)cc1,active: 56.2%
14,O=C(O)c1ccc(CSc2nnc(COc3ccccc3)o2)cc1,inconclusive: 24.6%
15,Cn1c(=O)c(C(=O)CSc2ccccc2)c(N)n(Cc2ccccc2)c1=O,inactive: 10.3%
16,Cc1ccc2nc3c(cc(C(=O)NCCc4ccccc4)c(=N)n3CCCN3CCOCC3)c(=O)n2c1,inactive: 0.962%
17,O=Cc1cc(OCc2ccccc2)ccc1[B-](F)(F)F,inactive: 0.316%
18,Cn1cnc(S(=O)(=O)N2CC[C@@H]3[C@H](CO)Nc4ccc(C#Cc5ccccc5F)cc4[C@@H]32)c1,inconclusive: 23.6%
19,C[C@H](CO)N1C[C@H](C)[C@H](CN(C)S(C)(=O)=O)Oc2cc(C#Cc3ccccc3)ccc2S1(=O)=O,active: 28.2%
20,CC(C)NC(=O)N1[C@H](CO)[C@H]2c3ccccc3N(C(=O)Nc3ccc(F)cc3)C[C@H]21,active: 27%
21,CN1CCN(CC(=O)Nc2cccc(S(=O)(=O)N(C)c3ccccc3)c2)CC1,inconclusive: 53%
22,CCCC(=O)N1CCC2(CC1)CN(C(=O)C1CC1)[C@H](CO)c1[nH]c3cc(OC)ccc3c12,active: 33.9%
23,COc1ccc(/C=N/NC(=O)C(=O)N2CCCCCC2)cc1,inconclusive: 44.1%
24,CC(C)(OC(=O)c1ccc(C#N)cc1)c1cc2ccccc2c(=O)o1,active: 36.7%
25,O=C1Nc2ccccc2C1=Nc1ccc(Br)cc1,inconclusive: 37.2%

# Rewritten with tabs: entries from further up
row	SMILES	CPE inhibition
16	Cc1ccc2nc3c(cc(C(=O)NCCc4ccccc4)c(=N)n3CCCN3CCOCC3)c(=O)n2c1	inactive: 0.962%
17	O=Cc1cc(OCc2ccccc2)ccc1[B-](F)(F)F	inactive: 0.316%

# Continuation:

row,SMILES,CPE inhibition
1,CC(C)N(C(=O)[C@H]1C[C@H](CC(=O)NCCCN(C)C)C(=O)N2CCc3c([nH]c4cc(CCC(=O)N(C)C)ccc34)[C@]12C)C(C)C,inactive: 10.7%
2,C[C@@H]1CN([C@H](C)CO)C(=O)Cc2cc(NC(=O)Nc3ccccc3)ccc2O[C@@H]1CN(C)C(=O)NC1CCCCC1,active: 34.8%
3,CC1=Nc2cc(C(=O)NCC3CCCO3)ccc2Sc2ccc(Br)cc21 (stereo not drawn),inactive: 1.64%
4,O=C(CSc1nc(=O)[nH]c2c1CCCC2)Nc1cc(C(F)(F)F)cc(C(F)(F)F)c1,inconclusive: 25.1%
5,O=c1[nH]c(C2CCN(S(=O)(=O)c3cccc(Cl)c3)CC2)nc2c1nnn2Cc1ccccc1,inconclusive: 23.7%
6,CSc1nsc(SCC(=O)Nc2ccc(C(N)=O)cc2)n1,inconclusive: 23.5%
7,CCOC(=O)c1[nH]c(C)c(C(=O)OCC(=O)N2CC(=O)Nc3ccccc32)c1C,active: 70.9%
8,CCCCC[C@@H](O)c1cc2ccccc2c(=O)o1,inconclusive: 21.8%
9,COc1c2c(c(C)c3c1C(=O)OC3)O[C@@]1(C)CC[C@@]3(O)C(C)(C)OC(=O)CC[C@]3(C)[C@H]1C2,inconclusive: 47.8%
10,Cc1ccccc1S(=O)(=O)N1C[C@H](O)COC[C@H]2O[C@H](CC(=O)NCc3ccccc3Cl)CC[C@@H]21,inconclusive: 32.4%
11,C[C@H](CO)N1C[C@H](C)[C@@H](CN(C)Cc2ccc(-c3ccccc3)cc2)Oc2c(NS(=O)(=O)c3cn(C)cn3)cccc2C1=O,inconclusive: 67.4%
12,Cc1cc(=O)n2nc(N3CCC(C(=O)NCCc4ccc(Cl)cc4)CC3)sc2n1,inactive: 4.87%
13,COCCNC(=O)C1(C)CCN(C(=O)Cc2ccc(OC)c(OC)c2)C1 (stereo not drawn),active: 22%
14,COc1ccc(-c2ccc3c(c2)O[C@H](CN(C)C)[C@@H](C)CN([C@@H](C)CO)S3(=O)=O)cc1,inactive: -3.58%
15,C[C@H](CO)N1C[C@H](C)[C@H](CN(C)C)Oc2ccc(NS(=O)(=O)c3cccs3)cc2CC1=O,inactive: 8.87%
16,CCOc1cccc(-c2cc(NCCc3ccccn3)n3nccc3n2)c1,inconclusive: 26.9%
17,CC(C)CC#Cc1ccc2c(c1)O[C@H](CN(C)C(=O)C1CCC1)[C@@H](C)CN([C@@H](C)CO)S2(=O)=O,inactive: -12.7%
18,C/C(=N\NC(=O)c1ccc(Cn2cc([N+](=O)[O-])cn2)o1)c1cccc(NC(=O)c2cccnc2)c1,inactive: -1.33%
19,O=C(COC(=O)C1CCN(S(=O)(=O)c2ccc(Cl)c(C(F)(F)F)c2)CC1)NCc1ccco1,inconclusive: 21.9%
20,CO[C@H]1CN(C)C(=O)c2ccc(NC(=O)C3CCOCC3)cc2OC[C@H](C)N(Cc2cccnc2)C[C@@H]1C,inactive: 1.74%
21,C[C@@H]1CN([C@H](C)CO)C(=O)c2cccc(NS(=O)(=O)c3cccs3)c2O[C@@H]1CN(C)Cc1ccc(C(=O)O)cc1,inactive: 6.08%
22,CCC(=O)Nc1ccc2c(c1)OC[C@H](C)N(C(=O)c1ccccc1F)C[C@H](C)[C@@H](OC)CN(C)C2=O,active: 22.1%
23,O=C(C[C@H]1C=C[C@H](NC(=O)c2cccnc2)[C@H](CO)O1)NCc1ccc(Cl)c(Cl)c1,inactive: 5.68%

# Reformatted with tabs: 2 of the compounds above.
row	SMILES	CPE inhibition
5	O=c1[nH]c(C2CCN(S(=O)(=O)c3cccc(Cl)c3)CC2)nc2c1nnn2Cc1ccccc1	inconclusive: 23.7%
6	CSc1nsc(SCC(=O)Nc2ccc(C(N)=O)cc2)n1	inconclusive: 23.5%
